Test results as given in publication PMC8660910.
These are yes or no findings as the source states them, for the method shown. Binding can be weak; no strength is given.

Target: T1, PsaG (Photosystem I subunit of C. reinhardtii) (C. reinhardtii (endogenous in strain TSP4xpgr5)) (UniProt P14224)
T1 sequence: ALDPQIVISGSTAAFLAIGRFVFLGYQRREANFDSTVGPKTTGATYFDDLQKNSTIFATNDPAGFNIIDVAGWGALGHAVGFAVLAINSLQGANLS
Test: cryo-EM structure; PSI dimer found among the particles of purified TSP4 PSI (5707 particles); 17.1 Å 3-dimensional map, TSP4–10LHC and TSP4–8LHC models placed into it; sample in 20 mM Tricine pH 8.0; both purified

In the case of “Lhca2 (light-harvesting complex I protein of C. reinhardtii PSI)”, the binding is reported as “binds”.
